# Data source: PubChem BioAssay AID1259254 (NCATS, 2017)
# Screen: 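Finding genes that stop cells copying their DNA twice in one cycle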 (primary screen)
# System: human HCT116 colorectal cancer cells
# Reagent: single siRNA against human genes
# Time to read-out: 3 days
# Measured: 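Imaged Hoechst DNA stain sorts each cell into a cycle phase by DNA amount; per plate, G2 fraction set to 0% for non-targeting and 100% for GMNN siRNA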
# Reading the numbers: G2 robust z-score and G2 cells, % of GMNN control: higher = more G2 cells, more excess DNA replication; raw share of cells in G2: higher = larger share of cells with G2 DNA content
# Call rule: 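An siRNA counts as active if its G2 robust z-score lies at least 5 MADs above the screen median; here such calls match roughly 38% of GMNN control or more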
# In all, the deposit lists about 59,000 reagents; below is a part drawn at random. About 1,550 of them (2.6%) were called active. 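G2 share is only a proxy for re-replication; each gene was hit by three separate siRNAs, and active genes were retested.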 Raw values are not corrected between plates. Reagents against one gene are numbered here. The record does not give: the amount of reagent.
The first 8 entries as a preview:
target,reagent no.,G2 robust z-score,"G2 cells, % of GMNN control",raw share of cells in G2 (%),activity call
OR2T34 (olfactory receptor family 2 subfamily T member 34),1,-0.391,0.219,4.26,inactive
OR2T34 (olfactory receptor family 2 subfamily T member 34),2,0.12,3.81,4.31,inactive
OR2T34 (olfactory receptor family 2 subfamily T member 34),3,0.262,4.81,4.32,inactive
LOC729722 (retired record),1,-0.382,0.28,4.2,inactive
LOC729722 (retired record),2,2.33,19.4,9.76,inactive
LOC729722 (retired record),3,1,10,6.83,inactive
ZFY (zinc finger protein Y-linked),1,0.94,9.58,6.71,inactive
ZFY (zinc finger protein Y-linked),2,0.263,4.82,8.13,inactive

The list itself, from the start:
target,reagent no.,G2 robust z-score,"G2 cells, % of GMNN control",raw share of cells in G2 (%),activity call
OR2T34 (olfactory receptor family 2 subfamily T member 34),1,-0.391,0.219,4.26,inactive
OR2T34 (olfactory receptor family 2 subfamily T member 34),2,0.12,3.81,4.31,inactive
OR2T34 (olfactory receptor family 2 subfamily T member 34),3,0.262,4.81,4.32,inactive
LOC729722 (retired record),1,-0.382,0.28,4.2,inactive
LOC729722 (retired record),2,2.33,19.4,9.76,inactive
LOC729722 (retired record),3,1,10,6.83,inactive
ZFY (zinc finger protein Y-linked),1,0.94,9.58,6.71,inactive
ZFY (zinc finger protein Y-linked),2,0.263,4.82,8.13,inactive
ZFY (zinc finger protein Y-linked),3,0.491,6.42,6.03,inactive
FARSB (phenylalanyl-tRNA synthetase subunit beta),1,-0.176,1.73,5.45,inactive
FARSB (phenylalanyl-tRNA synthetase subunit beta),2,0.0569,3.37,6.48,inactive
FARSB (phenylalanyl-tRNA synthetase subunit beta),3,0.188,4.29,4.66,inactive
CKB (creatine kinase B),1,-1.58,-8.11,2.68,inactive
CKB (creatine kinase B),2,0.73,8.1,8.28,inactive
CKB (creatine kinase B),3,-0.0728,2.46,4.89,inactive
IFT70B (intraflagellar transport 70B),1,1.31,12.2,7.92,inactive
IFT70B (intraflagellar transport 70B),2,0.185,4.27,4.23,inactive
IFT70B (intraflagellar transport 70B),3,-0.468,-0.326,2.95,inactive
RBM47 (RNA binding motif protein 47),1,0.395,5.75,5.66,inactive
RBM47 (RNA binding motif protein 47),2,3.11,24.9,14.7,inactive
RBM47 (RNA binding motif protein 47),3,3.13,25,11.5,inactive
ATP2B2 (ATPase plasma membrane Ca2+ transporting 2),1,0.45,6.13,7.52,inactive
ATP2B2 (ATPase plasma membrane Ca2+ transporting 2),2,-0.447,-0.175,4.72,inactive
ATP2B2 (ATPase plasma membrane Ca2+ transporting 2),3,0.307,5.13,6.38,inactive
RNF5 (ring finger protein 5),1,3.4,26.9,14.1,inactive
RNF5 (ring finger protein 5),2,-0.34,0.578,5.12,inactive
RNF5 (ring finger protein 5),3,1.22,11.6,7.3,inactive
FBXW2 (F-box and WD repeat domain containing 2),1,1.19,11.4,8.69,inactive
FBXW2 (F-box and WD repeat domain containing 2),2,-0.586,-1.15,3.44,inactive
FBXW2 (F-box and WD repeat domain containing 2),3,0.161,4.1,4.73,inactive
TEKT4 (tektin 4),1,0.858,9,6.85,inactive
TEKT4 (tektin 4),2,-0.209,1.49,3.37,inactive
TEKT4 (tektin 4),3,-1.08,-4.61,1.46,inactive
RMDN3 (regulator of microtubule dynamics 3),1,-0.176,1.73,5.19,inactive
RMDN3 (regulator of microtubule dynamics 3),2,-0.681,-1.82,3.38,inactive
RMDN3 (regulator of microtubule dynamics 3),3,2.24,18.7,9.11,inactive
STEAP3 (STEAP3 metalloreductase),1,1.19,11.3,8.88,inactive
STEAP3 (STEAP3 metalloreductase),2,-0.548,-0.888,3.77,inactive
STEAP3 (STEAP3 metalloreductase),3,-0.924,-3.53,2.01,inactive
EMP3 (epithelial membrane protein 3 (MAM blood group)),1,-0.647,-1.59,2.9,inactive
EMP3 (epithelial membrane protein 3 (MAM blood group)),2,2.23,18.7,14,inactive
EMP3 (epithelial membrane protein 3 (MAM blood group)),3,-0.128,2.07,4.84,inactive
UGT2B15 (UDP glucuronosyltransferase family 2 member B15),1,-0.224,1.39,6.19,inactive
UGT2B15 (UDP glucuronosyltransferase family 2 member B15),2,1.05,10.3,7.88,inactive
UGT2B15 (UDP glucuronosyltransferase family 2 member B15),3,6.82,50.9,23.2,active
E2F1 (E2F transcription factor 1),1,-1.18,-5.32,1.76,inactive
E2F1 (E2F transcription factor 1),2,0.924,9.47,8.86,inactive
E2F1 (E2F transcription factor 1),3,-0.887,-3.27,4.05,inactive
CT45A5 (cancer/testis antigen family 45 member A5),1,-0.297,0.876,3.96,inactive
CT45A5 (cancer/testis antigen family 45 member A5),2,1.36,12.6,8.18,inactive
CT45A5 (cancer/testis antigen family 45 member A5),3,0.0417,3.26,4.23,inactive
ARFRP1 (ARF related protein 1),1,-0.493,-0.503,4.55,inactive
ARFRP1 (ARF related protein 1),2,-0.0583,2.56,6.17,inactive
ARFRP1 (ARF related protein 1),3,0.307,5.13,4.95,inactive
TAF11 (TATA-box binding protein associated factor 11),1,2.35,19.5,11.2,inactive
TAF11 (TATA-box binding protein associated factor 11),2,0.358,5.48,7.42,inactive
TAF11 (TATA-box binding protein associated factor 11),3,0.0395,3.25,4.29,inactive
SHBG (sex hormone binding globulin),1,1.37,12.6,8.86,inactive
SHBG (sex hormone binding globulin),2,0.599,7.19,6.34,inactive
SHBG (sex hormone binding globulin),3,5.6,42.4,19.9,active
MEX3B (mex-3 RNA binding family member B),1,-0.00739,2.92,6.64,inactive
MEX3B (mex-3 RNA binding family member B),2,3.35,26.5,13.8,inactive
MEX3B (mex-3 RNA binding family member B),3,2.15,18.1,11.5,inactive
SMIM45 (small integral membrane protein 45),1,-0.268,1.08,4.63,inactive
SMIM45 (small integral membrane protein 45),2,0.17,4.17,5.42,inactive
SMIM45 (small integral membrane protein 45),3,0.457,6.18,5.96,inactive
JDP2 (Jun dimerization protein 2),1,1.52,13.7,9.64,inactive
JDP2 (Jun dimerization protein 2),2,-0.408,0.0996,5.72,inactive
JDP2 (Jun dimerization protein 2),3,2.9,23.3,15,inactive
DUSP18 (dual specificity phosphatase 18),1,-1.03,-4.28,3.41,inactive
DUSP18 (dual specificity phosphatase 18),2,0.0313,3.19,5.26,inactive
DUSP18 (dual specificity phosphatase 18),3,0.412,5.87,5.26,inactive
NR4A3 (nuclear receptor subfamily 4 group A member 3),1,1.49,13.5,10.2,inactive
NR4A3 (nuclear receptor subfamily 4 group A member 3),2,-0.525,-0.728,4.3,inactive
NR4A3 (nuclear receptor subfamily 4 group A member 3),3,-0.011,2.89,4.91,inactive
OR6C6 (olfactory receptor family 6 subfamily C member 6),1,1.61,14.3,8.24,inactive
OR6C6 (olfactory receptor family 6 subfamily C member 6),2,0.0703,3.46,4.41,inactive
OR6C6 (olfactory receptor family 6 subfamily C member 6),3,-0.554,-0.929,3.92,inactive
LOC730110 (zinc finger protein 492 pseudogene),1,2.32,19.3,10.7,inactive
LOC730110 (zinc finger protein 492 pseudogene),2,1.02,10.2,7.66,inactive
LOC730110 (zinc finger protein 492 pseudogene),3,-0.333,0.624,3.76,inactive
"MUC3A (mucin 3A, cell surface associated)",1,-0.821,-2.81,3.21,inactive
"MUC3A (mucin 3A, cell surface associated)",2,0.583,7.07,5.76,inactive
"MUC3A (mucin 3A, cell surface associated)",3,-0.272,1.05,3.43,inactive
RPL32P19 (ribosomal protein L32 pseudogene 19),1,-0.015,2.86,4.86,inactive
RPL32P19 (ribosomal protein L32 pseudogene 19),2,-0.331,0.637,3.46,inactive
RPL32P19 (ribosomal protein L32 pseudogene 19),3,-0.225,1.38,3.48,inactive
